Assay results: the supplement of paper PMC10849652
Some of the results follow.

Chains of the proteins cited; added tags and fusions are not shown. Lines headed by an entry give the natural chain unless they say otherwise; changes in a name come on top.
UniProt Q96HA8: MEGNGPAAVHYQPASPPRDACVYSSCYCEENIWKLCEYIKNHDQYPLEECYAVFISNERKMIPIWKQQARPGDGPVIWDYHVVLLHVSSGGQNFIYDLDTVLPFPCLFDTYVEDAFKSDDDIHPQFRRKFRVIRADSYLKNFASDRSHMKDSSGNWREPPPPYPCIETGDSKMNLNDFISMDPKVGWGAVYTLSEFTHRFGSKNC
UniProt O75083: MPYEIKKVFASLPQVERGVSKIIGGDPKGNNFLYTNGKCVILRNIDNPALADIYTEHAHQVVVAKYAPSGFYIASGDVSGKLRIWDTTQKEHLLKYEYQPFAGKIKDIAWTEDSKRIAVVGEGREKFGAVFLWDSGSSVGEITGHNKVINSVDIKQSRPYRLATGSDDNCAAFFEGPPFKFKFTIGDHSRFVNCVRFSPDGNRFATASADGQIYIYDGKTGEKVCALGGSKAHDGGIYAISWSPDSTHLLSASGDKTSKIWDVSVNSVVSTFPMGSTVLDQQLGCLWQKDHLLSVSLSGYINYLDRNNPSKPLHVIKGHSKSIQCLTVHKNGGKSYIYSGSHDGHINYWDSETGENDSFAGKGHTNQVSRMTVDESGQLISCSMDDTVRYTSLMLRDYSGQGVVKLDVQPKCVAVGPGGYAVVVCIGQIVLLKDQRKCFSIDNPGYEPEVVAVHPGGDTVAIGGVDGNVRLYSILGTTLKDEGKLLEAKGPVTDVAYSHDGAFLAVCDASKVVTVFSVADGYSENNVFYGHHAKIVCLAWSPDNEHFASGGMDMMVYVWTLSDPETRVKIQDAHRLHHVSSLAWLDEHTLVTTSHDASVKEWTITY
UniProt Q9H9H4: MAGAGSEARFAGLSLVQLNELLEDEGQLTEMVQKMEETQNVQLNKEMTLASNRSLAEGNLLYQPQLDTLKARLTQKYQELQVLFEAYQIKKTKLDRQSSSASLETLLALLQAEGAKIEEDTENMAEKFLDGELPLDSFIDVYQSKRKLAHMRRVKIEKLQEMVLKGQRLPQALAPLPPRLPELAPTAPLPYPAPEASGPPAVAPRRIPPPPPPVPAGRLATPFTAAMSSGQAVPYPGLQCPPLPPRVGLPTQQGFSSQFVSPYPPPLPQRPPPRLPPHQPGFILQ
UniProt Q96P53: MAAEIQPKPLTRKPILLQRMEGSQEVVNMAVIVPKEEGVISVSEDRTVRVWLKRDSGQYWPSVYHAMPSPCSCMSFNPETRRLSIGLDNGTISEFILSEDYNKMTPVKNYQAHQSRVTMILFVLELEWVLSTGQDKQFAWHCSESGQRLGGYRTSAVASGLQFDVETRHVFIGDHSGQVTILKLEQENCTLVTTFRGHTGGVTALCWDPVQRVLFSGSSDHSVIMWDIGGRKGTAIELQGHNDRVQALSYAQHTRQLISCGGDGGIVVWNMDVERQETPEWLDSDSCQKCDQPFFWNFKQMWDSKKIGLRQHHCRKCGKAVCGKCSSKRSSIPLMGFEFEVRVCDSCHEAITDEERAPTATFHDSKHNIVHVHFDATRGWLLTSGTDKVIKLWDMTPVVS
UniProt Q96JG6: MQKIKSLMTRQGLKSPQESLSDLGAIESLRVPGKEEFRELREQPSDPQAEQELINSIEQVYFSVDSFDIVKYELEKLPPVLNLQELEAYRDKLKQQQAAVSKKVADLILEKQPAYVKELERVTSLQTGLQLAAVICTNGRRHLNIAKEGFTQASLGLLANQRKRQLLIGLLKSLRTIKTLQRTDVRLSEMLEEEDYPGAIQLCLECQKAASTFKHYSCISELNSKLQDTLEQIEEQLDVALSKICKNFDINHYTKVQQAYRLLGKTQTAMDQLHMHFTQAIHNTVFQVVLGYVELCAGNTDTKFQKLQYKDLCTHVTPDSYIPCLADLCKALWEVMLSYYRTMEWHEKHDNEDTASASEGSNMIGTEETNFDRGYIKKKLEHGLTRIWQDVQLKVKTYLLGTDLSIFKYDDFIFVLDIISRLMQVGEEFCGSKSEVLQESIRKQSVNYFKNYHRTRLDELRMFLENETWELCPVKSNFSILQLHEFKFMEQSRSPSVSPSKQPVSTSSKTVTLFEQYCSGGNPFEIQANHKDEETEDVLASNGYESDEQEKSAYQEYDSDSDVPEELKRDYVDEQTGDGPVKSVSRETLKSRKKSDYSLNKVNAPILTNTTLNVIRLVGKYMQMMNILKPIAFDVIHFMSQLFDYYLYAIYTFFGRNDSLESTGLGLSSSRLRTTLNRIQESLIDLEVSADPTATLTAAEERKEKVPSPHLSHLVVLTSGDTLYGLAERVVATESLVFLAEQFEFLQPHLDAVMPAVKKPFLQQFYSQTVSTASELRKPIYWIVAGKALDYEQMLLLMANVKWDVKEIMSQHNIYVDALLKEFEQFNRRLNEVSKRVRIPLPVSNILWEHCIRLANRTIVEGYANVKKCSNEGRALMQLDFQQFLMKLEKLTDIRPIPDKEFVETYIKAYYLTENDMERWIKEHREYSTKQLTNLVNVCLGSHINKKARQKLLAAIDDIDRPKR
UniProt Q9NZC7: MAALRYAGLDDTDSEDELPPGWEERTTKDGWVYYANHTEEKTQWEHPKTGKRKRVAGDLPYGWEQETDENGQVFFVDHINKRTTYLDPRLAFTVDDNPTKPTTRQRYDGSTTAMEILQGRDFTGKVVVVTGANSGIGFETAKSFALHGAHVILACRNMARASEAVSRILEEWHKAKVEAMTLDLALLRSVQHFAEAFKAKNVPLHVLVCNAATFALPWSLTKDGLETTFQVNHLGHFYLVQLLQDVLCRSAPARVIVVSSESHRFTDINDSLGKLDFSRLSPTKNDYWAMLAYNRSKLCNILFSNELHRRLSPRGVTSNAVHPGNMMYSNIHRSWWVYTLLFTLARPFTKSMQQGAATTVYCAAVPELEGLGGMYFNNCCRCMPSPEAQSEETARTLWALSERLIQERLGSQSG
UniProt Q12768: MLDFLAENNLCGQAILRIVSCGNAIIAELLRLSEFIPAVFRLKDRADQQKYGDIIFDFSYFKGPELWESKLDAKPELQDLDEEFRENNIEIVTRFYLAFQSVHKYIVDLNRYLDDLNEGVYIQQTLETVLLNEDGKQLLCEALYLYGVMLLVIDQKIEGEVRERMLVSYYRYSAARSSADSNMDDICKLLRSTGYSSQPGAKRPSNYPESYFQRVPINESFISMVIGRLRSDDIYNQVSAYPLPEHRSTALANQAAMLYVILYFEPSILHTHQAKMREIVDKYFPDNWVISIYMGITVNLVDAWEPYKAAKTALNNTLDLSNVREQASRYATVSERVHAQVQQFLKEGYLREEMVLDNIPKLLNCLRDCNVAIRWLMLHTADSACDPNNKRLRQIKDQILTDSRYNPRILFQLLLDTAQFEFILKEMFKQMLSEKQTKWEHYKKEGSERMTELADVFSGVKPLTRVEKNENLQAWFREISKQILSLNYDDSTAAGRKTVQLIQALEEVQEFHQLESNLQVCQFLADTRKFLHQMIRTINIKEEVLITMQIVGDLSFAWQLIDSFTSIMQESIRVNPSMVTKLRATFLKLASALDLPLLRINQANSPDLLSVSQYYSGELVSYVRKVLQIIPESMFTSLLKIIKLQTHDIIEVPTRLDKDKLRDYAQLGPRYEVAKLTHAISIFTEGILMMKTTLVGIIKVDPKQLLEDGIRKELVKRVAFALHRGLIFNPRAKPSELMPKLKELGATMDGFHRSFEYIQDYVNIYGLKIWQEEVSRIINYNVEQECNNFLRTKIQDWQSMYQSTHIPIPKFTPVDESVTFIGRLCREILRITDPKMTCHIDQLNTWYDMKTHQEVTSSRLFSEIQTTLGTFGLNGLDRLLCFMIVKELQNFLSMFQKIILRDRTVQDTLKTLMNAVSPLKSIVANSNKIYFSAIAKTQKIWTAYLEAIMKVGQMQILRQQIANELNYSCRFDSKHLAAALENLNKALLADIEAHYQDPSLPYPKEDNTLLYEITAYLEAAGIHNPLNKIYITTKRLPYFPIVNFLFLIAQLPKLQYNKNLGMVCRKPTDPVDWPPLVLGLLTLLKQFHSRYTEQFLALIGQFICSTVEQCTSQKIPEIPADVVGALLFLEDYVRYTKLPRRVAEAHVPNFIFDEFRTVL
UniProt Q9NQA3: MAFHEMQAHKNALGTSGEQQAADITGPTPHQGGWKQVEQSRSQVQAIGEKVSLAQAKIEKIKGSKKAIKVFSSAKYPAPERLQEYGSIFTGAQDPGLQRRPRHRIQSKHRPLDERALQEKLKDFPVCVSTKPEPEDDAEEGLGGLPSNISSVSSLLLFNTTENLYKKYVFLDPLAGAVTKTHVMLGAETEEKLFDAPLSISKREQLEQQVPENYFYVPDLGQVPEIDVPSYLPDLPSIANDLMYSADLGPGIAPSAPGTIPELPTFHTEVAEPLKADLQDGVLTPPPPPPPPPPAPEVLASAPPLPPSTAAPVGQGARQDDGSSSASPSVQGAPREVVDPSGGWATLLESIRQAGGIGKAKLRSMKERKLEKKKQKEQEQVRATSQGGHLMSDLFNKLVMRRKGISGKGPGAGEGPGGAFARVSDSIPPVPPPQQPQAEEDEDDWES
UniProt P23381: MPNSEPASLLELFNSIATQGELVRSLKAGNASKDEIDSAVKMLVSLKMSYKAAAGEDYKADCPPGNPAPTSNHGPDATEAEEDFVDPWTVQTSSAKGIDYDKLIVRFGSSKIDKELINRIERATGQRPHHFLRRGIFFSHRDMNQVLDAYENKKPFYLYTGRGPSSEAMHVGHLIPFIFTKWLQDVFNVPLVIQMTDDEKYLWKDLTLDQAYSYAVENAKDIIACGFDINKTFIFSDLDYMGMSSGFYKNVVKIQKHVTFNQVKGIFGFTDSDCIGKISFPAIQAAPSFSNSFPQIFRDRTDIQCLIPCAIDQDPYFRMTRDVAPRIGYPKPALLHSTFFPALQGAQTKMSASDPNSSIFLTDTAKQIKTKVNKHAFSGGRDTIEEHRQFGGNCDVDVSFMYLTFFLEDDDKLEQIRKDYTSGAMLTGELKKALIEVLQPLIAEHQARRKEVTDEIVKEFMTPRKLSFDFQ
UniProt Q9HD64: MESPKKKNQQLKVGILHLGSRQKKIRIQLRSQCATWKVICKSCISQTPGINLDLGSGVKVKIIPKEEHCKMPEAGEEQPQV
UniProt Q9UEU0: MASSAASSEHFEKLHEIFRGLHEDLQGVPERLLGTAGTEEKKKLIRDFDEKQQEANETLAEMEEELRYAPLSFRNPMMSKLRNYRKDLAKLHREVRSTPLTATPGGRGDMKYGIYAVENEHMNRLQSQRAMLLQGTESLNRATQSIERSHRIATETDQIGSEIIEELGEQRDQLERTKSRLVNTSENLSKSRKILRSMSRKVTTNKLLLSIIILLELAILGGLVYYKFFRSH
UniProt Q9P2L0: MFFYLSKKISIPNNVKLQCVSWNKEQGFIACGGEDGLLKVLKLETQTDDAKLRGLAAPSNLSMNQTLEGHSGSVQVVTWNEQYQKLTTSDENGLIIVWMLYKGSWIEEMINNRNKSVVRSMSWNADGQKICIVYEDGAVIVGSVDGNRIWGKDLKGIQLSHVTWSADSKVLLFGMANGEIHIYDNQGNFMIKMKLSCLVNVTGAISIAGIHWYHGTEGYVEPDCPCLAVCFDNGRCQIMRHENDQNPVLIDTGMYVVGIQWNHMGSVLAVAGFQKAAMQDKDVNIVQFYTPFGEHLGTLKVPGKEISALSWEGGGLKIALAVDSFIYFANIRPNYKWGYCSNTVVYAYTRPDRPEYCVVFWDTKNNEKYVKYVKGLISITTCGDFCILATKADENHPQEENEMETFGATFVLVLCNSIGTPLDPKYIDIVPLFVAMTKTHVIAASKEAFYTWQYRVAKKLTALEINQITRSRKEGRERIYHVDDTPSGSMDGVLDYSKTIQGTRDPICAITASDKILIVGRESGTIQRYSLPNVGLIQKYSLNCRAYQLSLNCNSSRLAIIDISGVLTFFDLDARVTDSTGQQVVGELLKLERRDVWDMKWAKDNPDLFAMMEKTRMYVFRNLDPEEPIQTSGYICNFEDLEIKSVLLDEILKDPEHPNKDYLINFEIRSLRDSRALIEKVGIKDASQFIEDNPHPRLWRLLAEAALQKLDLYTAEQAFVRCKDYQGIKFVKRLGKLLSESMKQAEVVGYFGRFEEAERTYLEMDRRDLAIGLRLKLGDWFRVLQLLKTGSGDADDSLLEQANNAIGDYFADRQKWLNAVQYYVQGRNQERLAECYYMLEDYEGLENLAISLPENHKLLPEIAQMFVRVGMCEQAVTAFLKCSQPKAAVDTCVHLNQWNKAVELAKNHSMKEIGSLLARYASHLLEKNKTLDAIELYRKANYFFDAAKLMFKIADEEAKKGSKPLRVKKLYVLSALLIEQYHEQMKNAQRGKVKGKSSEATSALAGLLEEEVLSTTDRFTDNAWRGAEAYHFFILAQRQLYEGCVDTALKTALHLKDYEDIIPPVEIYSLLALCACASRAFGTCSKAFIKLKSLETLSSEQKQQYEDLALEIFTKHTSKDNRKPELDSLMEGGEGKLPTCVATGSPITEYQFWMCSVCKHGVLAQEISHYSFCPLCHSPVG

Columns and labels:
Assay in all cases: log2 fold change, soluble protein after heating vs DMSO (PISA); higher = thermal stabilisation; K562 lysate, 10 uM; active = over 0.2 and 3.5 SD of the protein, either way, in both replicates (recomputed)
erlotinib = compound: C#Cc1cccc(Nc2ncnc3cc(OCCOC)c(OCCOC)cc23)c1 [erlotinib]
In short: (§1)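 The values are log-two fold changes in thermal stability compared with solvent controls and come from duplicates. They were obtained by TMTpro 16plex LC-MS/MS, with channel sums equalised, on the supernatant after 21,000xg for 90 min. That supernatant came from crude K562 extract at 1 mg/mL protein treated with 10 μM compound for 30 min, heated for 3 min across 48°C-58°C, pooled and brought to 0.5% NP-40 at 4°C.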

[1] = compound: C1=CC(=CC=C1C2=NC3=C(N2)C=C(C=C3)C(=O)N)OC4=CC=C(C=C4)Cl
In short: as §1

[2] = compound: C1=CC2=NC=CN=C2C=C1/C=C/3\C(=O)NC(=O)S3
In short: as §1

[3] = compound: C1=CC=C(C=C1)C2=NC(=C(N2)C3=CC=NC=C3)C4=CC(=C(C=C4)Cl)O
In short: as §1

[4] = compound: C1CCN(C1)C(=O)NC2=CC=CC(=C2)NC3=NC=C(C(=N3)NCCC4=CN=CN4)Br
In short: as §1

[5] = compound: C1CN(CCC1(CC2=CC=C(C=C2)Cl)N)C3=NC=NC4=C3C=CN4
In short: as §1

IRAK-1-4 Inhibitor I = compound: C1COCCN1CCN2C3=CC=CC=C3N=C2NC(=O)C4=CC(=CC=C4)[N+](=O)[O-] [IRAK-1-4 Inhibitor I]
In short: as §1

[6] = compound: C/C(=N\NC(=O)C1=CC(=CC=C1)S(=O)(=O)N2CCOCC2)/C3=C(C=CC(=C3)Cl)O
In short: as §1

[7] = compound: C1=CC2=C(C=CC(=C2)/C=C\3/C(=O)NC(=NCC4=CC=CS4)S3)N=C1
In short: as §1

[8] = compound: C1=CC=C2C(=C1)C3=NNC4=CC=CC(=C43)C2=O
In short: as §1

Measured: log2 fold change

WIPI1 (UniProt Q5MNZ9)
inactive: erlotinib -0.025 | [1] -0.006 | [2] -0.016 | [3] -0.027 | [4] 0.035 | [5] -0.013 | IRAK-1-4 Inhibitor I -0.007

WDR66 (UniProt Q8TBY9)
inactive: [6] 0.51 | [7] -0.06 | [3] -0.077 | [8] -0.095 | IRAK-1-4 Inhibitor I 0.074

VPS72 (UniProt Q15906)
inactive: erlotinib 0.056 | [6] -0.036 | [1] 0.046 | [7] -0.057 | [3] -0.04 | [8] 0.052 | [4] 0.024 | [5] 0.059 | IRAK-1-4 Inhibitor I -0.008

WIPI2 isoform 6 (UniProt Q9Y4P8)
inactive: [2] 0.079

WDR13, A0A087X091
inactive: [6] -0.212 | [7] 0.094 | [8] -0.041

WARS1 (UniProt G3V277)
inactive: [6] 1.02 | [7] -0.06 | [2] -0.07 | [8] 0.021 | [4] -0.101 | [5] -0.044

WDYHV1 (UniProt Q96HA8)
inactive: erlotinib 0.064 | [6] -0.295 | [1] -0.086 | [7] 0.068 | [3] 0.146 | [8] -0.111 | [4] -0.013 | [5] -0.064 | IRAK-1-4 Inhibitor I -0.116

WARS1 (UniProt G3V5U1)
inactive: [2] -0.037 | [4] 0.444 | [5] 0.211

WDR46, A0A0G2JJL1
inactive: [6] -0.86 | [7] 0.107 | [2] 0.142 | [3] -0.041 | [8] -0.148 | IRAK-1-4 Inhibitor I -0.041

WDR1 (UniProt O75083)
inactive: erlotinib -0.017 | [6] 0.05 | [1] 0 | [7] 0.008 | [2] 0.028 | [3] 0.005 | [8] 0.015 | [4] 0.001 | [5] -0.001 | IRAK-1-4 Inhibitor I -0.017

WDR76 (UniProt Q9H967)
inactive: [3] -0.074 | [4] 0 | [5] -0.028 | IRAK-1-4 Inhibitor I 0.107

WAS (UniProt P42768)
inactive: erlotinib 0.023 | [1] 0.074 | [2] -0.149 | [4] 0.007 | [5] 0.026

VPS37B (UniProt Q9H9H4)
inactive: erlotinib -0.046 | [6] 0.078 | [1] 0.059 | [7] 0.002 | [2] -0.011 | [3] 0.031 | [8] 0 | [4] 0.043 | [5] 0.098 | IRAK-1-4 Inhibitor I -0.012

WDFY2 (UniProt Q96P53)
inactive: erlotinib 0 | [1] 0.166

VPS50 (UniProt Q96JG6)
inactive: erlotinib -0.011 | [6] -0.002 | [1] -0.003 | [7] 0.032 | [2] 0.008 | [3] 0.001 | [8] -0.013 | [4] -0.013 | [5] -0.007 | IRAK-1-4 Inhibitor I 0

VPS16 (UniProt Q9H269)
inactive: erlotinib 0.059 | [6] 0.026 | [1] 0.048 | [7] 0.024 | [2] -0.03 | [3] 0.048 | [8] -0.075 | [4] 0.03 | [5] 0.023 | IRAK-1-4 Inhibitor I 0.025

WWOX (UniProt Q9NZC7)
inactive: [6] 0.017 | [7] 0.024 | [3] -0.079 | [8] 0.033 | IRAK-1-4 Inhibitor I 0.005

WASHC5 (UniProt Q12768)
inactive: erlotinib -0.018 | [6] -0.06 | [1] -0.008 | [7] 0.013 | [2] -0.025 | [3] -0.021 | [8] 0.006 | [4] -0.016 | [5] -0.003 | IRAK-1-4 Inhibitor I -0.003

WDR54 isoform 4 (UniProt Q9H977)
inactive: [6] -0.06 | [7] 0.048 | [2] 0.017 | [8] -0.149 | [4] 0.082 | [5] -0.066

WASH6P (UniProt Q9NQA3)
inactive: [2] 0.195

VPS35L (UniProt Q7Z3J2)
inactive: erlotinib 0.005 | [6] -0.016 | [1] -0.028 | [7] -0.001 | [2] 0.002 | [3] 0.006 | [8] -0.038 | [4] -0.028 | [5] 0.006 | IRAK-1-4 Inhibitor I 0.04

WAC isoform 5 (UniProt Q9BTA9)
inactive: erlotinib -0.01 | [1] -0.156 | [3] 0.062 | IRAK-1-4 Inhibitor I 0.018

WARS (UniProt P23381)
inactive: erlotinib -0.015 | [6] -0.001 | [1] 0 | [7] 0 | [2] -0.009 | [3] 0.014 | [8] 0.041 | [4] 0.01 | [5] 0 | IRAK-1-4 Inhibitor I 0.021

VKORC1 (UniProt Q9BQB6)
inactive: erlotinib 0.012 | [6] -0.053 | [1] -0.11 | [7] -0.038 | [2] -0.038 | [3] 0.016 | [8] 0.011 | [4] -0.015 | [5] 0.115 | IRAK-1-4 Inhibitor I -0.009

XAGE1A (UniProt Q9HD64)
inactive: [6] 0.218 | [7] -0.185 | [2] -0.055 | [8] -0.138 | [4] -0.468 | [5] 0.102

WDR83 (UniProt Q9BRX9)
inactive: [6] -0.139 | [7] 0.051 | [2] 0.086 | [3] 0.009 | [8] 0.038 | IRAK-1-4 Inhibitor I -0.331

2 consecutive entries from above, quoted:
WAC isoform 5 (UniProt Q9BTA9)
inactive: erlotinib -0.01 | [1] -0.156 | [3] 0.062 | IRAK-1-4 Inhibitor I 0.018

WARS (UniProt P23381)
inactive: erlotinib -0.015 | [6] -0.001 | [1] 0 | [7] 0 | [2] -0.009 | [3] 0.014 | [8] 0.041 | [4] 0.01 | [5] 0 | IRAK-1-4 Inhibitor I 0.021

The list continues.

VWA3B isoform 6 (UniProt Q502W6)
inactive: erlotinib -0.01 | [1] -0.009 | [2] -0.099 | [3] 0.037 | [4] -0.132 | [5] -0.035 | IRAK-1-4 Inhibitor I -0.076

VPS4B (UniProt O75351)
inactive: erlotinib -0.008 | [6] -0.009 | [1] -0.048 | [7] -0.006 | [2] -0.007 | [3] 0 | [8] -0.068 | [4] 0.024 | [5] -0.026 | IRAK-1-4 Inhibitor I 0.006

XIRP2 isoform 8 (UniProt A4UGR9)
inactive: [2] 0.059 | [3] 0.02 | IRAK-1-4 Inhibitor I 0.02

VTI1B (UniProt Q9UEU0)
inactive: erlotinib -0.062 | [1] -0.011 | [2] 0.047 | [3] 0.054 | [4] 0.009 | [5] 0.046 | IRAK-1-4 Inhibitor I -0.058

XBP1 isoform 2 (UniProt P17861)
inactive: erlotinib -0.045 | [1] -0.126 | [3] 0.074 | IRAK-1-4 Inhibitor I 0.063

VLDLR (UniProt P98155)
inactive: erlotinib 0.064 | [1] 0.032 | [2] -0.021 | [3] 0.014 | IRAK-1-4 Inhibitor I 0.108

VPS29 (UniProt Q9UBQ0)
inactive: erlotinib -0.101 | [6] -0.075 | [1] 0.096 | [7] 0.115 | [3] 0.089 | [8] -0.189 | IRAK-1-4 Inhibitor I 0.073

WDR33 (UniProt Q9C0J8)
inactive: erlotinib 0.043 | [6] 0.007 | [1] 0.047 | [7] 0.033 | [2] -0.028 | [3] 0.019 | [8] -0.038 | [4] -0.027 | [5] 0.093 | IRAK-1-4 Inhibitor I 0.01

VPS35, A0A1W2PP10
inactive: erlotinib -0.028 | [1] 0.15 | [2] -0.122

XK (UniProt P51811)
inactive: erlotinib -0.114 | [1] 0.144 | [2] -0.004 | [3] -0.146 | [4] -0.012 | [5] 0 | IRAK-1-4 Inhibitor I 0.004

WDR35 (UniProt Q9P2L0)
inactive: [3] -0.05 | IRAK-1-4 Inhibitor I -0.264
